Test results as given in article PMC12292949.

By UniProt entry, the sequences of proteins in these tests, tags left out.
UniProt Q9H8M2: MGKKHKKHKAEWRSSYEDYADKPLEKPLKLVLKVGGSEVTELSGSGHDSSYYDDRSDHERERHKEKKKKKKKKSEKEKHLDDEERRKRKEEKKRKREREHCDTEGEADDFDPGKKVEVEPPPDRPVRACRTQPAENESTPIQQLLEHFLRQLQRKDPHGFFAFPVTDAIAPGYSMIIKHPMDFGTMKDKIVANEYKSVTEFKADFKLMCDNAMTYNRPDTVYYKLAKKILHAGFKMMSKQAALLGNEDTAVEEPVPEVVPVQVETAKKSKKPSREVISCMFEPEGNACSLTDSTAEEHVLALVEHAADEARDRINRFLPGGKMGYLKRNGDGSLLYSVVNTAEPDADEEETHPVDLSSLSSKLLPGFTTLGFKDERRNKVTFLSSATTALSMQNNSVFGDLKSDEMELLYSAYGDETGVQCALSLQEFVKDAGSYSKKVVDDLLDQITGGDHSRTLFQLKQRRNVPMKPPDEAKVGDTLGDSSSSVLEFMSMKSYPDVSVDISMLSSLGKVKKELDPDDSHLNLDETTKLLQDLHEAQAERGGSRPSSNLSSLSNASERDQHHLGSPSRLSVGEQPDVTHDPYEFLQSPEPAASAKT
UniProt Q86U86: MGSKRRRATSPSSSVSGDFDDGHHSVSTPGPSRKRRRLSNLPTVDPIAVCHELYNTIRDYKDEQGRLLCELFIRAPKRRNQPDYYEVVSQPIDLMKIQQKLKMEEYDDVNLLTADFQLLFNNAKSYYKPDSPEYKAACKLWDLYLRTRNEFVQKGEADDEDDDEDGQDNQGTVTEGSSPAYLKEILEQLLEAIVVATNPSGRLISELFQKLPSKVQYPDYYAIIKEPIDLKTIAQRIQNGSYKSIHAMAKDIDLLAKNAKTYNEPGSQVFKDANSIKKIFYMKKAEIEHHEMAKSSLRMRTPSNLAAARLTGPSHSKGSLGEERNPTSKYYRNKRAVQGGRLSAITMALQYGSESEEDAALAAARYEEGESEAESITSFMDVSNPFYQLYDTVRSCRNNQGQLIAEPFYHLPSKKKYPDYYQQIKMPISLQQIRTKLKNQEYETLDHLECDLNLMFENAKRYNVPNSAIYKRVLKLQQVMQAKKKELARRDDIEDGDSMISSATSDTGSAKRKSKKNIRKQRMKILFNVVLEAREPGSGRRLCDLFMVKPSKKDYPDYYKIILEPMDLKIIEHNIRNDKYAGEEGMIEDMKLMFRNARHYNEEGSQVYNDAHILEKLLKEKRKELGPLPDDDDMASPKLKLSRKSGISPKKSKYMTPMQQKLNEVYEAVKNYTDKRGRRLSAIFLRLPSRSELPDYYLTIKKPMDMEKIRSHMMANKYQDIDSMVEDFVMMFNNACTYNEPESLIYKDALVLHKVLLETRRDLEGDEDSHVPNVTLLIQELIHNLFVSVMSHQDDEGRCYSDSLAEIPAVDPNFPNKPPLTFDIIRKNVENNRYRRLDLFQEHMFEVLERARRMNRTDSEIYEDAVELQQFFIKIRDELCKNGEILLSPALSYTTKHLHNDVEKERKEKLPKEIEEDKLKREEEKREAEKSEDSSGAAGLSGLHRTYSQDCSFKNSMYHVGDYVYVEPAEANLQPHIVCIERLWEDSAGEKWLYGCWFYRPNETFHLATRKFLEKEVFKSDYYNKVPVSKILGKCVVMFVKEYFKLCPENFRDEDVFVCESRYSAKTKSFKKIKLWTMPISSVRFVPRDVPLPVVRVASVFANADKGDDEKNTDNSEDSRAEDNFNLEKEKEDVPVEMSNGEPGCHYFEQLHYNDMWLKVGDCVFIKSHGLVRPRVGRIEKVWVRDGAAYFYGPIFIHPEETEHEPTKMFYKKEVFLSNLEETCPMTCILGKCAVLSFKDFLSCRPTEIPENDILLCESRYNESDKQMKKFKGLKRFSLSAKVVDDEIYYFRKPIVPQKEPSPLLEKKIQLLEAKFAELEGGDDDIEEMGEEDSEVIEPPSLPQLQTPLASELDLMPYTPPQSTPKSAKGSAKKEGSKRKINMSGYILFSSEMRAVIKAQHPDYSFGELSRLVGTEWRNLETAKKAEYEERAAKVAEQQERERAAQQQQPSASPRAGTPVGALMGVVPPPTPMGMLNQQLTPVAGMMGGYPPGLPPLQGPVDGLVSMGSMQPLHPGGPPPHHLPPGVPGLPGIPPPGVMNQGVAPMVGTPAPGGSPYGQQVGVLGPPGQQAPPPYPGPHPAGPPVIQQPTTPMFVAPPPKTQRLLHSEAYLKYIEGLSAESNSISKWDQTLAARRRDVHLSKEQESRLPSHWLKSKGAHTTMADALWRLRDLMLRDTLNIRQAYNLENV
UniProt Q92922: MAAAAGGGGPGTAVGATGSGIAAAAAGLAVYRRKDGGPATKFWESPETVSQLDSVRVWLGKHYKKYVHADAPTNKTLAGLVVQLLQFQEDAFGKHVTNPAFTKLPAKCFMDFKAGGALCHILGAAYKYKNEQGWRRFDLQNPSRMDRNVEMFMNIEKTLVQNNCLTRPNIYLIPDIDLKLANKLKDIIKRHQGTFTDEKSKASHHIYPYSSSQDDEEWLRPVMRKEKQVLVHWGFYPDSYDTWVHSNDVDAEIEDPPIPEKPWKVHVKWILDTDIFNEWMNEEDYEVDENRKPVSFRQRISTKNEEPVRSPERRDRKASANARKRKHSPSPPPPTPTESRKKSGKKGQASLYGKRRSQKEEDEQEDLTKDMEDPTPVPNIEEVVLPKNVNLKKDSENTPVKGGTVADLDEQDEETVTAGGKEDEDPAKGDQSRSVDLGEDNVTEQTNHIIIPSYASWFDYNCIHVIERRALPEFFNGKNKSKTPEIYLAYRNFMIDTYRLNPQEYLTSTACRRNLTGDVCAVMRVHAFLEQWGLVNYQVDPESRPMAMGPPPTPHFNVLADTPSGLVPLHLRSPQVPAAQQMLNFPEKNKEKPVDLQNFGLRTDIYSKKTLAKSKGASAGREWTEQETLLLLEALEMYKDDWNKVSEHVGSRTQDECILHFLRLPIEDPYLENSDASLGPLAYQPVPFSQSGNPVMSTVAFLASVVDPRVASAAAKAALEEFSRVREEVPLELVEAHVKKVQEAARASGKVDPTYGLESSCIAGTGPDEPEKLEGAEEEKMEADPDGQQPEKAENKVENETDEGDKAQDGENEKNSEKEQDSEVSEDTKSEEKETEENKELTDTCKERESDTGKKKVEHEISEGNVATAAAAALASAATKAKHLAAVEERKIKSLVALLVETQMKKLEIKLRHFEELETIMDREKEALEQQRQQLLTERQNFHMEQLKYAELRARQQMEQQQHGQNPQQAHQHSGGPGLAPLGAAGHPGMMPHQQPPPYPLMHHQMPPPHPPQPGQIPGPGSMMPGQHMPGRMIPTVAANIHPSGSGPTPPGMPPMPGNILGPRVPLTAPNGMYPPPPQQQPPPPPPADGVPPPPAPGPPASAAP
UniProt Q8TAQ2: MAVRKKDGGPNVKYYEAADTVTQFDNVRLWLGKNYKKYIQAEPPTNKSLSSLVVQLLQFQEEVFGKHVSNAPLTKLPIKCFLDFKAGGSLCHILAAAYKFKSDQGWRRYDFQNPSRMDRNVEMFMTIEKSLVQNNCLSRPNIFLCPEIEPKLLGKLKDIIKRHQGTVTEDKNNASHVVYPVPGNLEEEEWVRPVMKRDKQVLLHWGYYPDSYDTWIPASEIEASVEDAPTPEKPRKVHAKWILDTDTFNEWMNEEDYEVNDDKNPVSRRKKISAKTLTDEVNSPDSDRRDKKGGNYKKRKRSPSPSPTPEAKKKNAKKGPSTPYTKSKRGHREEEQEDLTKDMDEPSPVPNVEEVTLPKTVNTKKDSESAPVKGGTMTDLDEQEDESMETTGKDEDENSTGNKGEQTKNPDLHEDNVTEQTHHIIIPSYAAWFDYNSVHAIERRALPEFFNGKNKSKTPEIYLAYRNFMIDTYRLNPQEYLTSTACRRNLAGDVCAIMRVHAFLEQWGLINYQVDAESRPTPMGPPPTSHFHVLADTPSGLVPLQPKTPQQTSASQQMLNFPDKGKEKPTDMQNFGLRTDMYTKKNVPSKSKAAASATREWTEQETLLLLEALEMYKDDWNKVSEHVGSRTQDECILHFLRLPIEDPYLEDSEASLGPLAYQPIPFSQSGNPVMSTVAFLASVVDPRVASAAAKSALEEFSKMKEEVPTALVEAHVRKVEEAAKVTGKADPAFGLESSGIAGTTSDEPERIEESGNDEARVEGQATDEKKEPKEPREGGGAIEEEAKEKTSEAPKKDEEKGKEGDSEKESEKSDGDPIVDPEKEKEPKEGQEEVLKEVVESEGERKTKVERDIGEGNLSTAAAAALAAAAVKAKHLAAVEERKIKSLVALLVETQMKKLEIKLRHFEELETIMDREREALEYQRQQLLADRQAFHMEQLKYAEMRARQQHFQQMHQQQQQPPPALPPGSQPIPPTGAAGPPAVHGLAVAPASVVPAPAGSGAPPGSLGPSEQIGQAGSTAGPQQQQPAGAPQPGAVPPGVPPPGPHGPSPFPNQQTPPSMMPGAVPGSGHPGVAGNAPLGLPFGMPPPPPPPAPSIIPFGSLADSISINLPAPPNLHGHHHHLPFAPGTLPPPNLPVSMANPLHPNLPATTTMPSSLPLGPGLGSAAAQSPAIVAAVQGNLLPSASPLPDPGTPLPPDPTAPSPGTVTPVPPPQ
UniProt O15160: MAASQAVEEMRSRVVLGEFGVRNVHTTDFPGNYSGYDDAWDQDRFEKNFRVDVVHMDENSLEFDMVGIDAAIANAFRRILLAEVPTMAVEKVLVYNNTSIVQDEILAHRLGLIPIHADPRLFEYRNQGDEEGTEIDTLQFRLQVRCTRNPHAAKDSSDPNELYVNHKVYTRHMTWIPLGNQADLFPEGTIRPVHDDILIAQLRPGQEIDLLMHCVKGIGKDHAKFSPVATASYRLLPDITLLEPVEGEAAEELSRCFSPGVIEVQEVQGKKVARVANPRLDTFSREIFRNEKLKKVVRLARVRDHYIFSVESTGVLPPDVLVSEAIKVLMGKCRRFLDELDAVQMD
UniProt Q6ZU65: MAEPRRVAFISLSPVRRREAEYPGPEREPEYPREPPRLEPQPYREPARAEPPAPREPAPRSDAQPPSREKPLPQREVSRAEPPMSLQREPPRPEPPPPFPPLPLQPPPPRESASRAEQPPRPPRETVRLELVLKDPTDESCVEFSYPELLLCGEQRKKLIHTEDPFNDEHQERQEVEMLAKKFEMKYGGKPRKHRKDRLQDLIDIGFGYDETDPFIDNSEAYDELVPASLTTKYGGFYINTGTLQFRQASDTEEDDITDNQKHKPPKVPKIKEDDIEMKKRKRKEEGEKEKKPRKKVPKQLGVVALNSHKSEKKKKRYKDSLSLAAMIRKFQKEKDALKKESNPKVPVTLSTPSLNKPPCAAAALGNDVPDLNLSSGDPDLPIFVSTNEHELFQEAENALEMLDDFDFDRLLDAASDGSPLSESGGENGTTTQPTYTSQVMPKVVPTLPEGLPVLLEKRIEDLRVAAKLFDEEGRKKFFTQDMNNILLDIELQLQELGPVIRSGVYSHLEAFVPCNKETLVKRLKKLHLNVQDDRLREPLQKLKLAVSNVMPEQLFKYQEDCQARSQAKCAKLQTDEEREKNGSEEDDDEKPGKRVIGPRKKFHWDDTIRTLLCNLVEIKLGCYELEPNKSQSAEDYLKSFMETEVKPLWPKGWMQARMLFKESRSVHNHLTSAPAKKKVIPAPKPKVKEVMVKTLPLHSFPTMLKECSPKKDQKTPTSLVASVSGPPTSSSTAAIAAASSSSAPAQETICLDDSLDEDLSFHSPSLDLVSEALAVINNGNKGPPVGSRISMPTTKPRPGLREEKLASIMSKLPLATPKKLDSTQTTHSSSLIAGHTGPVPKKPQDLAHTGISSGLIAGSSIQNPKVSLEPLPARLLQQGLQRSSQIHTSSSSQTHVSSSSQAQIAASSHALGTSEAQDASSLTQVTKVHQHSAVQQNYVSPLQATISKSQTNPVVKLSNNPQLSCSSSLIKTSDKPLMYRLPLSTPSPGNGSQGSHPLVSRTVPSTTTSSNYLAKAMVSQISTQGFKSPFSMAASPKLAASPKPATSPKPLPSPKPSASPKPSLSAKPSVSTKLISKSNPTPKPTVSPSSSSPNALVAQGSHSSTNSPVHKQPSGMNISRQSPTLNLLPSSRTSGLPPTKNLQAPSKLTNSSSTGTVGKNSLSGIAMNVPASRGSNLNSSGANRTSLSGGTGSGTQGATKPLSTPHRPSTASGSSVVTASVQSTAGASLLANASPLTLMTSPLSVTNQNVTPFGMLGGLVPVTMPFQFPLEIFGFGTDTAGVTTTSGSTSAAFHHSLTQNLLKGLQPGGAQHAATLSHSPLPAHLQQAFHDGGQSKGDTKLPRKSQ

molecular target: T1, H2A.B N-terminal peptide asymmetrically dimethylated at R7 (human); assay: affinity purification with mass spectrometry; SILAC: biotinylated unmodified, R7me, R7me2a or R15me H2A.B N-terminal peptides on streptavidin beads, L428 nuclear extract (0.6 mg/ml), 2 h at 4 C, 50 mM tris-HCl pH 8.0, 150 mM NaCl, 1% NP-40; washes with 350 mM NaCl; LC-MS/MS; only the target …
T1 sequence (peptide, asymmetric dimethylarginine (ADMA) at R7; C-terminally biotinylated): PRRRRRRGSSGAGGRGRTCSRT

binding, binds:
ACTL6A (endogenous) (from UniProt O96019 1-429)
BRD7 (endogenous) (from UniProt Q9NPI1 1-651)
BRD9 (endogenous) (from UniProt Q9H8M2 1-597)
BRM (endogenous) (from UniProt P51531 1-1590)
PBRM1 (endogenous) (from UniProt Q86U86 1-1689)
SMARCC1 (endogenous) (from UniProt Q92922 1-1105)
SMARCC2 (endogenous) (from UniProt Q8TAQ2 1-1214)

molecular target: T2, H2A.B N-terminal peptide phosphorylated at S9 (human); assay: affinity purification with mass spectrometry; SILAC: biotinylated unmodified or S9ph H2A.B N-terminal peptide on streptavidin beads, L428 nuclear extract, 2 h at 4 C, binding buffer with NP-40 reduced to 0.1%; washes with 350 mM NaCl; LC-MS/MS; only the target purified
T2 sequence (peptide, phosphoserine at S9; C-terminally biotinylated): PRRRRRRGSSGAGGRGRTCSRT

binding, binds:
CABIN1 (endogenous) (from UniProt Q9Y6J0 1-2220)
HIRA (endogenous) (from UniProt P54198 1-1017)
POLR1A/RPA194 (endogenous) (from UniProt O95602 1-1720)
POLR1C/RPA40 (endogenous) (from UniProt O15160 1-346)
UBN1 (endogenous) (from UniProt Q9NPG3 1-1134)
UBN2 (endogenous) (from UniProt Q6ZU65 1-1347)

These are yes or no findings as the source states them, for the method shown. In cells and extracts the contact can be indirect. A yes stands for co-enrichment or nearness to the bait. Other partners may have been found.
